No constants are given. Whether binding was seen depends on the method and setting.
Molecular target: MBP fused to the viral MS2 coat protein (viral (MS2)) (UniProt P03612)
Assay: pull-down

Sequences of proteins named here, by UniProt entry; tags and fusion partners are left off.
UniProt P03612: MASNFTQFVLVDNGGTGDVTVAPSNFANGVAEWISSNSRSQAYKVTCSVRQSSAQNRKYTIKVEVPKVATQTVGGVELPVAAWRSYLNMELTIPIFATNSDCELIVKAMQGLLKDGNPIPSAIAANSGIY

B1: dephosphorylated Nopp140 (treated with calf intestinal alkaline phosphatase) (protein, UniProt Q14978 1-699)
chain: MADAGIRRVVPSDLYPLVLGFLRDNQLSEVANKFAKATGATQQDANASSLLDIYSFWLKSAKVPERKLQANGPVAKKAKKKASSSDSEDSSEEEEEVQGPPAKKAAVPAKRVGLPPGKAAAKASESSSSEESSDDDDEEDQKKQPVQKGVKPQAKAAKAPPKKAKSSDSDSDSSSEDEPPKNQKPKITPVTVKAQTKAPPKPARAAPKIANGKAASSSSSSSSSSSSDDSEEEKAAATPKKTVPKKQVVAKAPVKAATTPTRKSSSSEDSSSDEEEEQKKPMKNKPGPYSSVPPPSAPPPKKSLGTQPPKKAVEKQQPVESSEDSSDESDSSSEEEKKPPTKAVVSKATTKPPPAKKAAESSSDSSDSDSSEDDEAPSKPAGTTKNSSNKPAVTTKSPAVKPAAAPKQPVGGGQKLLTRKADSSSSEEESSSSEEEKTKKMVATTKPKATAKAALSLPAKQAPQGSRDSSSDSDSSSSEEEEEKTSKSAVKKKPQKVAGGAAPSKPASAKKGKAESSNSSSSDDSSEEEEEKLKGKGSPRPQAPKANGTSALTAQNGKAAKNSEEEEEEKKKAAVVVSKSGSLKKRKQNEAAKEAETPQAKKIKLQTPNTFPKRKKGEKRASSPFRRVREEEIEVDSRVADNSFDAKRGAAGDWGERANQVLKFTKGKSFRHEKTKKKRGSYRGGSISVQVNSIKFDSE
- binding: no binding

From paper doi:10.1101/2025.06.18.660405 (bioRxiv, 2025)
